Laboratory results taken from PMC8281810.
These are yes or no findings as the source states them, for the method shown. In cells and extracts the contact can be indirect. A yes stands for co-enrichment or nearness to the bait. Other partners may have been found.

The chains behind the UniProt entries cited, without tags or fusion partners. Where a name states a change or a piece, a line headed by the entry shows the natural chain unless it says otherwise.
UniProt Q6ZMR5: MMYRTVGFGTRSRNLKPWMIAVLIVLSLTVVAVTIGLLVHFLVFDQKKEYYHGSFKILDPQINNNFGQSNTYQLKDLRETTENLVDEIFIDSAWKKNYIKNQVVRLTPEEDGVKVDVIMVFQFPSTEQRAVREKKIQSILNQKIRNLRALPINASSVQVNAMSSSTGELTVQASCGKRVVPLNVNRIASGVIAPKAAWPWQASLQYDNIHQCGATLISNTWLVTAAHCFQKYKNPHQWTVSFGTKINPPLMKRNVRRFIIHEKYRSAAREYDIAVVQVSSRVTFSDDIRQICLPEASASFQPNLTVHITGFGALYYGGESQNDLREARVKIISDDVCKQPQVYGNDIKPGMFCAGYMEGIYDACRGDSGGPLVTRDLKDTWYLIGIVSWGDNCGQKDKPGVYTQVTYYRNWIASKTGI
UniProt P05556: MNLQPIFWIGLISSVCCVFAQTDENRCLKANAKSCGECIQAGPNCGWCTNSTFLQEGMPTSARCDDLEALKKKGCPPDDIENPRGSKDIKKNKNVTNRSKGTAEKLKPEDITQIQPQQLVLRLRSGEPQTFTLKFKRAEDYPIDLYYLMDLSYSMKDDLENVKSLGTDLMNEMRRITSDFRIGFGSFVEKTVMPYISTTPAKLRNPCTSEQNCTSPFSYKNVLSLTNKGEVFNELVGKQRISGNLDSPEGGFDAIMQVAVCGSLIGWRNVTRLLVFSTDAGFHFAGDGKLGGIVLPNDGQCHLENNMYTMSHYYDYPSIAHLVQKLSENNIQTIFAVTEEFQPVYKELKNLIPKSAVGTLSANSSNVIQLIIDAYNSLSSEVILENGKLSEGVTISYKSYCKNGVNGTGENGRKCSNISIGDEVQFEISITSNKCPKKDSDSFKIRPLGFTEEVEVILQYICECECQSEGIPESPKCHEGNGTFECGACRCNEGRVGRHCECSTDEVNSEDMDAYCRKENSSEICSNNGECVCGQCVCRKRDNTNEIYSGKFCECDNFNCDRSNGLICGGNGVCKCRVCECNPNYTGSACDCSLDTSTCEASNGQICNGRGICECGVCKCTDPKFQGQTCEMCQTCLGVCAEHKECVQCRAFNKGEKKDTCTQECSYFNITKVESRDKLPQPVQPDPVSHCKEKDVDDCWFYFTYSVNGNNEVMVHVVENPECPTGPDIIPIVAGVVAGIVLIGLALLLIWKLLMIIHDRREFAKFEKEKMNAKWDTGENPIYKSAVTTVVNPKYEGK

Molecular target: Transmembrane Serine protease 11A (TMPRSS11a) (UniProt Q6ZMR5)
Assay: affinity purification with mass spectrometry; affinity chromatography of TMPRSS11a-associated endogenous proteins, MS-based proteomics; no conditions given

In the case of “Integrin beta-1 protein (from UniProt P05556 21-798) (receptor)”, the binding is reported as “binds”.
